The supplement of paper PMC4635364
Structures can show the parent of a compound that is named as a salt. This is one part of the list. This data set is noisy: repeats of one test often differ as much as different tests do.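 Cells: ReNCell VM human fetal ventral-midbrain neural progenitors, differentiated mitogen-free. Blinded raters compared doublecortin-stained (early neurons) or tyrosine hydroxylase-stained (dopaminergic neurons) images with untreated wells, where 0 means no change. After repeats and both raters were averaged, compounds scoring 2 or above became hits for retesting.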

What was measured:
ReNCell VM [1] = assay: neuronal differentiation score (DCX+ cell fraction vs untreated, manual image score) (score (-3 to 3)); higher = more neuronal differentiation; conditions: 2 uM, 2 weeks
ReNCell VM [2] = assay: dopaminergic neuron differentiation score (TH+ cell fraction vs untreated, manual image score) (score (0 to 3)); higher = more TH+ dopaminergic neuron differentiation; conditions: 2 uM, 4 weeks, BDNF 10 ng/ml + GDNF 10 ng/ml

**Q.** Which neuronal differentiation score (ReNCell VM [1]; library: Spectrum) does the source give for `COC(=O)C1=C(C)NC(C)=C(C(=O)OC(C)C)C1c1cccc2nonc12` (stereo not given) here?
**A.** Its neuronal differentiation score is inactive: 0.

**Q.** And the “dopaminergic neuron differentiation score” value (ReNCell VM [2]; library: Spectrum)?
**A.** The value was inactive: 0.

**Q.** `CC(=O)OCCNC(=O)c1cccnc1` [N-[2-(Acetoxy)ethyl]-3-pyridinecarboxamide] was tested. Which neuronal differentiation score (ReNCell VM [1]; library: Tocriscreen) did it give?
**A.** The neuronal differentiation score was inactive: 0.

**Q.** What about the “dopaminergic neuron differentiation score” value (ReNCell VM [2]; library: Tocriscreen) of the same compound?
**A.** The value was inactive: 0.

**Q.** How did the neuronal differentiation score (ReNCell VM [1]; library: Prestwick) turn out when `CCOc1nc2cccc(C(=O)O)c2n1Cc1ccc(-c2ccccc2-c2nnn[nH]2)cc1` [Candesartan] was run?
**A.** Its neuronal differentiation score is inactive: 0.

**Q.** And the “dopaminergic neuron differentiation score” value (ReNCell VM [2]; library: Prestwick)?
**A.** The value was inactive: 0.

**Q.** `CC(=O)OC(C)C[N+](C)(C)C` (stereo not given) [Methacholine chloride] was tested. Which neuronal differentiation score (ReNCell VM [1]; library: Prestwick) did it give?
**A.** Its neuronal differentiation score is inactive: 0.

**Q.** And the “dopaminergic neuron differentiation score” value (ReNCell VM [2]; library: Prestwick)?
**A.** Its value is inactive: 0.

**Q.** With `CC(=O)N(CC(O)CN(C(C)=O)c1c(I)c(C(=O)NCC(O)CO)c(I)c(C(=O)NCC(O)CO)c1I)c1c(I)c(C(=O)NCC(O)CO)c(I)c(C(=O)NCC(O)CO)c1I` (stereo not given) [Iodixanol] as the compound, how does the neuronal differentiation score (ReNCell VM [1]; library: Prestwick) read?
**A.** The neuronal differentiation score was inactive: 0.

**Q.** What about the “dopaminergic neuron differentiation score” value (ReNCell VM [2]; library: Prestwick) of the same compound?
**A.** The value was inactive: 0.

**Q.** Which results are given for `CCOC(=O)C1=C(COCCN)NC(C)=C(C(=O)OC)C1c1ccccc1Cl` (stereo not given)?
**A.** neuronal differentiation score (ReNCell VM [1]; library: Spectrum): inactive: 0; dopaminergic neuron differentiation score (ReNCell VM [2]; library: Spectrum): inactive: 0

**Q.** `COc1cc2c(cc1OC)[C@@H](c1ccccc1)CN(C)CC2` was tested. Which neuronal differentiation score (ReNCell VM [1]; library: LOPAC) did it give?
**A.** Its neuronal differentiation score is inactive: 0.

**Q.** What about the “dopaminergic neuron differentiation score” value (ReNCell VM [2]; library: LOPAC) of the same compound?
**A.** The value was inactive: 0.

**Q.** Which neuronal differentiation score (ReNCell VM [1]; library: Natural) does the source give for `C[C@@H]1CC[C@H]2C(C)(C)[C@H]3C[C@@]12CC[C@@]3(C)O` [cedrol] here?
**A.** The neuronal differentiation score was inactive: 0.

**Q.** What about the “dopaminergic neuron differentiation score” value (ReNCell VM [2]; library: Natural) of the same compound?
**A.** The value was inactive: 0.

**Q.** What does the source list for `COc1cc(OC)c2c(=O)c(O)c(-c3ccc(OC)c(OC)c3)oc2c1`?
**A.** neuronal differentiation score (ReNCell VM [1]; library: Spectrum): inactive: 0; dopaminergic neuron differentiation score (ReNCell VM [2]; library: Spectrum): inactive: 0

**Q.** `CC(C)NC[C@@H](O)COc1cccc2ccccc12` [(R)-Propranolol hydrochloride] was tested. Which neuronal differentiation score (ReNCell VM [1]; library: Prestwick) did it give?
**A.** The neuronal differentiation score was inactive: 0.

**Q.** And the “dopaminergic neuron differentiation score” value (ReNCell VM [2]; library: Prestwick)?
**A.** Its value is inactive: 0.

**Q.** Which results are given for `Nc1nc(Cl)nc2c1ncn2[C@@H]1O[C@H](CO)[C@@H](O)[C@@H]1F`?
**A.** neuronal differentiation score (ReNCell VM [1]; library: Spectrum): inactive: 0; dopaminergic neuron differentiation score (ReNCell VM [2]; library: Spectrum): inactive: 0

**Q.** With `CC1C(=O)OC2C(O)C34C5CC(C(C)(C)C)C36C(OC(=O)C6O)OC4(C(=O)O5)C12O` (stereo not given) [Ginkgolide B] as the compound, how does the neuronal differentiation score (ReNCell VM [1]; library: Tocriscreen) read?
**A.** Its neuronal differentiation score is inactive: 0.

**Q.** What about the “dopaminergic neuron differentiation score” value (ReNCell VM [2]; library: Tocriscreen) of the same compound?
**A.** The value was inactive: 0.

**Q.** With `NS(=O)(=O)c1cc2c(cc1Cl)NCNS2(=O)=O` as the compound, how does the neuronal differentiation score (ReNCell VM [1]; library: Spectrum) read?
**A.** Its neuronal differentiation score is inactive: 0.

**Q.** And the “dopaminergic neuron differentiation score” value (ReNCell VM [2]; library: Spectrum)?
**A.** The value was inactive: 0.

**Q.** For `O=C1CC2(CCCC2)CC(=O)N1CCCCN1CCN(c2ncccn2)CC1`, which neuronal differentiation score (ReNCell VM [1]; library: Spectrum) is on record?
**A.** The neuronal differentiation score was inactive: 0.

**Q.** What about the “dopaminergic neuron differentiation score” value (ReNCell VM [2]; library: Spectrum) of the same compound?
**A.** The value was inactive: 0.

**Q.** Which neuronal differentiation score (ReNCell VM [1]; library: Spectrum) does the source give for `CC(=O)OCC(=O)[C@H]1CC[C@H]2[C@@H]3CCC4=CC(=O)CC[C@]4(C)[C@H]3CC[C@]12C` here?
**A.** The neuronal differentiation score was inactive: 0.

**Q.** What about the “dopaminergic neuron differentiation score” value (ReNCell VM [2]; library: Spectrum) of the same compound?
**A.** The value was inactive: 0.

**Q.** With `COc1cc2ncnc(Nc3ccc(F)c(Cl)c3)c2cc1OCCCN1CCOCC1` as the compound, how does the neuronal differentiation score (ReNCell VM [1]; library: Spectrum) read?
**A.** Its neuronal differentiation score is inactive: 0.

**Q.** What about the “dopaminergic neuron differentiation score” value (ReNCell VM [2]; library: Spectrum) of the same compound?
**A.** Its value is inactive: 0.

**Q.** With `Cc1cc(=O)oc2c(O)c(O)ccc12` as the compound, how does the neuronal differentiation score (ReNCell VM [1]; library: Spectrum) read?
**A.** Its neuronal differentiation score is inactive: 0.

**Q.** And the “dopaminergic neuron differentiation score” value (ReNCell VM [2]; library: Spectrum)?
**A.** Its value is inactive: 0.

**Q.** `O=S(=O)(O)CCS` [Mesna] was tested. Which neuronal differentiation score (ReNCell VM [1]; library: Prestwick) did it give?
**A.** Its neuronal differentiation score is inactive: 0.

**Q.** And the “dopaminergic neuron differentiation score” value (ReNCell VM [2]; library: Prestwick)?
**A.** Its value is inactive: 0.

**Q.** Which results are given for `COC(=O)C[C@H]1C(C)(C)[C@@H](O)[C@@H]2CC3=C4C=C(OC)O[C@@H](c5ccoc5)[C@]4(C)CCC3[C@@]1(C)C2=O` (stereo partly drawn) [3-DEOXO-3beta-HYDROXYMEXICANOLIDE 16-ENOL ETHER]?
**A.** neuronal differentiation score (ReNCell VM [1]; library: Spectrum): inactive: 0; dopaminergic neuron differentiation score (ReNCell VM [2]; library: Spectrum): inactive: 0

**Q.** For `CCN(CC)CCc1nc(-c2ccccc2)no1`, which neuronal differentiation score (ReNCell VM [1]; library: Spectrum) is on record?
**A.** Its neuronal differentiation score is inactive: 0.

**Q.** And the “dopaminergic neuron differentiation score” value (ReNCell VM [2]; library: Spectrum)?
**A.** Its value is inactive: 0.

**Q.** How did the neuronal differentiation score (ReNCell VM [1]; library: Spectrum) turn out when `O=C(O)c1cc(O)c(=O)c2c(O)c(O)ccc2c1` was run?
**A.** The neuronal differentiation score was inactive: 0.

**Q.** And the “dopaminergic neuron differentiation score” value (ReNCell VM [2]; library: Spectrum)?
**A.** The value was inactive: 0.

**Q.** Which neuronal differentiation score (ReNCell VM [1]; library: Spectrum) does the source give for `CC[C@H]1OC(=O)[C@H](C)[C@@H](O[C@H]2C[C@@](C)(OC)[C@@H](O)[C@H](C)O2)[C@H](C)[C@@H](O[C@@H]2O[C@H](C)C[C@H](N(C)C)[C@H]2O)[C@](C)(O)C[C@@H](C)C(=O)[C@H](C)[C@@H](O)[C@]1(C)O` here?
**A.** Its neuronal differentiation score is inactive: 0.

**Q.** And the “dopaminergic neuron differentiation score” value (ReNCell VM [2]; library: Spectrum)?
**A.** The value was inactive: 0.

**Q.** With `CCN(CC)CC1CCCCN1CC(=O)N1c2ccccc2C(=O)Nc2cccnc21` (stereo not given) as the compound, how does the neuronal differentiation score (ReNCell VM [1]; library: Tocriscreen) read?
**A.** Its neuronal differentiation score is inactive: -3.

**Q.** And the “dopaminergic neuron differentiation score” value (ReNCell VM [2]; library: Tocriscreen)?
**A.** Its value is inactive: 0.

**Q.** What does the source list for `Cc1nccn1CC1CCc2c(c3ccccc3n2C)C1=O` (stereo not given)?
**A.** neuronal differentiation score (ReNCell VM [1]; library: Spectrum): inactive: 0; dopaminergic neuron differentiation score (ReNCell VM [2]; library: Spectrum): inactive: 0

**Q.** With `CO/N=C(\C(=O)N[C@@H]1C(=O)N2C(C(=O)O)=C(C[N+]3(C)CCCC3)CS[C@H]12)c1csc(N)n1` [Cefepime hydrochloride] as the compound, how does the neuronal differentiation score (ReNCell VM [1]; library: Prestwick) read?
**A.** Its neuronal differentiation score is inactive: 0.

**Q.** What about the “dopaminergic neuron differentiation score” value (ReNCell VM [2]; library: Prestwick) of the same compound?
**A.** The value was inactive: 0.
